Results taken from PMC5096713.
Results are given in words; binding and its absence hold for the method and conditions named. Binding seen in cells or lysates may run through a third protein. Binding can be weak; no strength is given. Sequences can lack the tags named with a protein.

T1: RFP-tagged wild-type Rab5 (Rab5-RFP) (Drosophila) (UniProt Q9V3I2)
T1 sequence: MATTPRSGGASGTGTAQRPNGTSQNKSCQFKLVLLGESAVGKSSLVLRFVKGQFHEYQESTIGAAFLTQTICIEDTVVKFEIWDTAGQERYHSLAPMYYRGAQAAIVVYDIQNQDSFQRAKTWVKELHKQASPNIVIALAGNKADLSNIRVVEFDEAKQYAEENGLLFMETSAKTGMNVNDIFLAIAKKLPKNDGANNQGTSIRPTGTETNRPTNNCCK

B1: RFP-tagged wild-type Rab5 (Rab5-RFP) (protein, UniProt Q9V3I2 1-219)
chain: MATTPRSGGASGTGTAQRPNGTSQNKSCQFKLVLLGESAVGKSSLVLRFVKGQFHEYQESTIGAAFLTQTICIEDTVVKFEIWDTAGQERYHSLAPMYYRGAQAAIVVYDIQNQDSFQRAKTWVKELHKQASPNIVIALAGNKADLSNIRVVEFDEAKQYAEENGLLFMETSAKTGMNVNDIFLAIAKKLPKNDGANNQGTSIRPTGTETNRPTNNCCK
B2: RFP-tagged constitutively active Rab5 (Q88L) (protein, UniProt Q9V3I2 1-219)
chain: MATTPRSGGASGTGTAQRPNGTSQNKSCQFKLVLLGESAVGKSSLVLRFVKGQFHEYQESTIGAAFLTQTICIEDTVVKFEIWDTAGLERYHSLAPMYYRGAQAAIVVYDIQNQDSFQRAKTWVKELHKQASPNIVIALAGNKADLSNIRVVEFDEAKQYAEENGLLFMETSAKTGMNVNDIFLAIAKKLPKNDGANNQGTSIRPTGTETNRPTNNCCK
B3: RFP-tagged dominant negative Rab5 (S43N) (protein, UniProt Q9V3I2 1-219)
chain: MATTPRSGGASGTGTAQRPNGTSQNKSCQFKLVLLGESAVGKNSLVLRFVKGQFHEYQESTIGAAFLTQTICIEDTVVKFEIWDTAGQERYHSLAPMYYRGAQAAIVVYDIQNQDSFQRAKTWVKELHKQASPNIVIALAGNKADLSNIRVVEFDEAKQYAEENGLLFMETSAKTGMNVNDIFLAIAKKLPKNDGANNQGTSIRPTGTETNRPTNNCCK

Columns and labels:
[1] = biological target: T1, RFP-tagged wild-type Rab5 (Rab5-RFP) (Drosophila); assay: co-IP; Drosophila S2 cells co-transfected; cell lysates immunoprecipitated by anti-RFP; Western blot
[2] = biological target: GFP-tagged Thickveins (Tkv-GFP) (Drosophila); assay: co-IP; Drosophila S2 cells co-transfected, lysed three days later in IP lysis buffer (25 mM Tris-HCl pH 7.4, 150 mM NaCl, 1% NP-40, 1 mM EDTA, 5% glycerol); immunoprecipitated by anti-GFP (GFP-Nanotrap A Kit); Western blot
[3] = biological target: GFP-tagged constitutively active form of Tkv (caTkv-GFP) (Drosophila); assay: as above

Molecule	binding [1]	binding [2]	binding [3]
GFP-tagged Thickveins (Tkv-GFP) (Drosophila) (receptor)	binds	–	–
MYC-tagged LRR domain of Scrib (LRR-MYC) (Drosophila) (domain or fragment)	binds	–	–
GFP-tagged constitutively active form of Tkv (caTkv-GFP) (Drosophila) (receptor)	binds	–	–
B1	–	binds	binds
B2	–	binds	–
B3	–	binds	–
